Laboratory results taken from PubChem BioAssay AID2685 (National Center for Advancing Translational Sciences (NCATS), 2010).
The other results are listed elsewhere or left out. Shown are side measurements of this screen, not its main read-out; they come without a call. Most of these compounds were active or inconclusive in the main read-out, so they are no random draw. Potencies come from curve fits of mixed quality, noted in brackets.

Experiment: qHTS Assay for Lipid Storage Modulators in Drosophila S3 Cells;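 as to cell number change: cells counted by Cell Tracker Red CMTPX staining in the red channel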
Conditions: BODIPY lipid droplet fluorescence, 18-24 h; for cell number change: measured here: cell count max response, cells fed with added oleic acid
In short: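 Laser-scanning cytometry quantifies lipid droplet accumulation (500–530 nm total intensity; droplet/cell object ratio) in oleic acid-fed (400 uM added) Drosophila S3 cells treated with a concentration series. 20 uM Triacsin C defined 100% inhibition.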

[1] = measured here: lipid fluorescence (Fed channel) AC50, cells fed with added oleic acid
[2] = measured here: cell number channel AC50, cells fed with added oleic acid

| Compound | cell number change [%] | AC50 [1] | AC50 [2] |
| --- | --- | --- | --- |
| CCC1NC(=S)N(C2CCCCC2)C1=O (stereo unspecified) | 32.5 | 23.1 µM [rising, single point] | – |
| COc1cc(/C=C2/C(=O)NN(c3ccc(Cl)c(Cl)c3)C2=O)cc([N+](=O)[O-])c1O | 1.8 | 29.1 µM [falling, single point] | 0.411 µM [falling, single point] |
| O=C(COC(=O)COc1ccccc1Cl)Nc1ccccc1OC(F)F | -38.1 | 3.26 µM [falling, full curve] | 1.16 µM [falling, full curve] |
| CN1CCC(=NNC(=O)COc2ccc(Cl)cc2)CC1 | 57.6 | 29.1 µM [rising, single point] | 0.326 µM [rising, full curve] |
| Cc1ccc(NC(=S)C2=C(O)c3sccc3N(C)S2(=O)=O)cc1 | 11.7 | 0.103 µM [rising, full curve, poor fit] | – |
| Cc1cnc(NC(=O)CSc2nnc(Cc3ccccc3)n2C)s1 | – | – | 2.59 µM [rising, partial curve] |
| NC(=O)c1ccsc1NC(=O)COC(=O)c1ccc(Cl)nc1 | 10.5 | 23.1 µM [rising, single point] | – |
| N#Cc1c(N2CCOCC2)nc(-c2ccco2)c2c1CCCC2 | -1.6 | 29.1 µM [rising, single point] | – |
| O=C(COC(=O)c1ccc(Br)o1)Nc1nc2ccccc2s1 | 6.52 | – | 0.164 µM [falling, full curve] |
| FC(F)(F)c1cccc(NC(=S)Nc2cccc(Cl)c2)c1 | -39 | 18.4 µM [falling, single point] | 20.6 µM [falling, single point] |
| Cc1ccccc1C(=O)N1CCN(c2ncnc3c2cnn3-c2ccccc2)CC1 | -30.1 | – | 0.259 µM [falling, full curve, poor fit] |
| COc1ccc(-n2c(CCc3ccccc3)nnc2SCC(=O)c2ccccc2)cc1 | -8.03 | 0.517 µM [falling, partial curve] | – |
| Cc1onc(-c2ccccc2)c1C(=O)NCCc1ccncc1 | 9.17 | 32.6 µM [rising, single point] | – |
| Cc1ccc(C(=O)CSc2ncnc3ccccc23)o1 | -2.71 | 1.46 µM [rising, partial curve] | 2.31 µM [rising, partial curve, poor fit] |
| COc1ccccc1-n1cnnc1SCc1csc(-c2ccccc2)n1 | 60.2 | 29.1 µM [rising, partial curve] | 20.6 µM [rising, partial curve, poor fit] |
| COc1ccc(NC(=O)CSc2nnnn2-c2ccccc2F)cc1 | 37.2 | – | – |
| Cc1cc2ccccc2n1CCNC(=O)C1CCCC1 | 27.1 | 2.31 µM [rising, partial curve, poor fit] | – |
| COc1ccc2oc(C)c(C(=O)NN)c2c1 | -6.11 | – | – |
| CC(C)CCNC(=O)c1onc(CSc2ccc(F)cc2)c1C(=O)NCCC(C)C | 33.2 | 14.6 µM [rising, partial curve] | 14.6 µM [rising, partial curve, poor fit] |
| O=C(COCC(=O)Nc1cccc(C(F)(F)F)c1)Nc1cccc(C(F)(F)F)c1 | -146 | 2.59 µM [rising, partial curve] | 29.1 µM [falling, single point] |

| Compound | cell number change [%] | AC50 [1] | AC50 [2] |
| --- | --- | --- | --- |
| CC(=O)N1c2ccc(S(=O)(=O)N3CCCC3)cc2CC1C(=O)NCc1ccc(OC(C)C)cc1 (stereo unspecified) | -26.3 | – | – |
| O=C1CSC(c2nn(-c3ccccc3)cc2-c2cc3ccccc3oc2=O)N1Cc1ccco1 (stereo unspecified) | 13.4 | 16.4 µM [falling, single point] | – |
| CCNS(=O)(=O)c1ccc(CCC(=O)Nc2cc(Cl)ccc2Oc2ccccc2)cc1 | -46.9 | – | 6.51 µM [falling, partial curve] |
| CNc1c([N+](=O)[O-])ncn1C | 19.9 | 7.31 µM [falling, partial curve, poor fit] | – |
| CCc1nnc(NC(=O)CSc2nc(SC)ns2)s1 | -12.2 | – | – |
| Cc1cccc(C)c1OCC(=O)NCC1CCCO1 (stereo unspecified) | 19.9 | 6.51 µM [rising, single point] | – |
| CS(=O)c1ccccc1COC(=O)Nc1ccc(Cl)cc1 (stereo unspecified) | – | 0.651 µM [rising, single point] | 0.517 µM [rising, single point] |
| O=C(Nc1nc2c(F)cc(F)cc2s1)C1COc2ccccc2O1 (stereo unspecified) | 35.6 | – | 29.1 µM [rising, single point] |
| O=C(O)C1C2C=CC(C2)C1C(=O)Nc1cccc(F)c1 (stereo unspecified) | -184 | – | 29.1 µM [falling, single point] |
| CCOC(=O)C1CCN(C(=O)CCS(=O)(=O)c2ccc3c(c2)CCN3C(C)=O)CC1 | -6.25 | 0.82 µM [rising, full curve] | 0.13 µM [falling, full curve, poor fit] |
| CCOC(=O)N1CCC(N2Cc3cccc(C(=O)Nc4ccc(CC)cc4)c3C2=O)CC1 | – | 6.51 µM [rising, single point] | 1.16 µM [rising, full curve] |
| O=C(COc1ccc2c3c(c(=O)oc2c1)CCCC3)NCc1cccnc1 | -14.7 | 7.31 µM [rising, partial curve] | – |
| Cc1cc(C(=O)CSc2nc3ccccc3[nH]2)c(C)n1Cc1ccco1 | -83.3 | 14.6 µM [falling, partial curve] | 29.1 µM [falling, single point] |
| COCCNC(=S)N/N=C(\C)c1ccc(Cl)s1 | -11 | – | – |
| COc1ccc(CNC(=O)CN(C)S(=O)(=O)c2ccc3c(c2)OCCO3)cc1OC | 3.19 | 20.6 µM [rising, single point] | – |
| COc1ccc(CN(C)C(=O)c2cc(-c3ccccc3)nc3ccc(C)cc23)c(OC)c1OC | -1.45 | 20.6 µM [falling, single point] | – |
| Cc1ccc(-c2nc(NC(=O)CSc3ccc4ccccc4n3)ns2)cc1 | -47.1 | 20.6 µM [falling, single point] | 29.1 µM [falling, single point] |
| O=C(COC(=O)c1nsc(Cl)c1Cl)NC1CCCCC1 | 3.81 | – | – |
| Cc1csc(Nc2cccc3ccccc23)n1 | 22.1 | – | – |
| Cc1cc(C(=O)CCl)c(C)n1-c1ccon1 | -32.1 | 16.4 µM [falling, partial curve] | – |

Entries listed so far that have a CF3 group (2):

| Compound | cell number change [%] | AC50 [1] | AC50 [2] |
| --- | --- | --- | --- |
| FC(F)(F)c1cccc(NC(=S)Nc2cccc(Cl)c2)c1 | -39 | 18.4 µM [falling, single point] | 20.6 µM [falling, single point] |
| O=C(COCC(=O)Nc1cccc(C(F)(F)F)c1)Nc1cccc(C(F)(F)F)c1 | -146 | 2.59 µM [rising, partial curve] | 29.1 µM [falling, single point] |

(list continues)

| Compound | cell number change [%] | AC50 [1] | AC50 [2] |
| --- | --- | --- | --- |
| OC1C[N+]2(CCCCC2)C1 | -92.3 | 3.66 µM [falling, full curve] | 25.9 µM [falling, partial curve] |
| CC(=O)Nc1cc(NC(C)=O)cc(C(=O)OCC(=O)c2ccc3c(c2)OCO3)c1 | 50.7 | – | 29.1 µM [rising, single point] |
| COC(=O)c1cc(NC(=O)/C=C/c2ccccc2)ccc1O | -18.7 | 18.4 µM [falling, single point] | – |
| OCCN1CCN(c2cc(-c3ccccc3)c3ccccc3n2)CC1 | -2.12 | – | – |
| O=C(COc1ccc(Cl)cc1)Nc1ccc2c(c1)OCO2 | 40.8 | – | 0.146 µM [rising, full curve, poor fit] |
| O=[N+]([O-])c1ccc(Cl)c(-c2ccc(/C=N/n3cnnc3)o2)c1 | 2.11 | 5.8 µM [falling, single point] | – |
| O=C(NCCN1CCCCC1)c1c(O)c2ccccc2[nH]c1=O | -34.8 | 6.51 µM [falling, partial curve] | 29.1 µM [falling, single point] |
| CC(C)(C)C(=O)c1cnc(Nc2ccccc2Cl)s1 | -11 | 6.51 µM [rising, single point] | – |
| Cc1cccc(CSCCNC(=O)COc2ccc(Cl)cc2)c1 | 6.77 | 16.4 µM [rising, partial curve, poor fit] | – |
| CCCCOC(=O)c1cc(=O)[nH]c2ccc(C)cc12 | 1.59 | – | – |
| CCCCCCCCCCCC(=O)NC(C(=O)OCC)C(O)c1cccc([N+](=O)[O-])c1 (stereo unspecified) | 23.9 | 18.4 µM [falling, single point] | – |
| CC(=O)c1cnn(-c2ccccc2)c1C | 28.5 | 10.3 µM [rising, single point] | – |
| COc1cc(OC)nc(/N=C/N(C)C)n1 | -17.2 | 0.00461 µM [rising, full curve, poor fit] | – |
| COc1ccc(C(C)=O)cc1CSc1nnc(C)s1 | 112 | 4.61 µM [rising, full curve, poor fit] | 7.31 µM [rising, partial curve] |
| Cc1cc(C(=O)OCC(=O)Nc2cccc(S(N)(=O)=O)c2)c2ccccc2n1 | -38.6 | 6.51 µM [falling, full curve] | 2.91 µM [falling, full curve] |
| CCc1cc(C(=O)N2CCCC(C(=O)c3cccc(OC(C)C)c3)C2)n(C)n1 (stereo unspecified) | -47.6 | 0.259 µM [falling, partial curve, poor fit] | 5.17 µM [falling, partial curve, poor fit] |
| CC(C)C[C@H](N)c1nnc(S(=O)(=O)Cc2ccc(F)cc2)o1 | -76.6 | 5.8 µM [falling, full curve] | 7.31 µM [falling, partial curve] |
| CC1CCN(c2oc(Cc3cccc4ccccc34)nc2C#N)CC1 | 42.9 | 3.26 µM [rising, partial curve] | 5.8 µM [rising, partial curve] |
| CCOC(=O)C1=C(C)NC(=O)NC1c1c(C)nn(-c2ccccc2)c1Cl (stereo unspecified) | -13.9 | 5.8 µM [rising, full curve, poor fit] | – |
